# Reference: the supplement of paper PMC8728848
# This is one part of the list.
# Legend:
# Assay in all cases: glycan array binding signal (z-score within array); higher = stronger binding
# Settings in all cases: glycan notation: IUPAC condensed, linker removed
# [1] = target: Gal(b1-3)GlcNAc(a1-6)Gal(b1-4)GlcNAc
# How it was run: (§1)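 The Consortium for Functional Glycomics database supplied 3228 glycan arrays, of which those lacking an available protein sequence were dropped. The binding signal, a within-array Z-score, was averaged across arrays of the same protein sequence and across linkers. Negative scores can be read as non-binding.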
# [2] = target: Gal(b1-3)GlcNAc(b1-2)Man(a1-3)[Gal(b1-3)GlcNAc(b1-2)Man(a1-6)]Man(b1-4)GlcNAc(b1-4)GlcNAc
# How it was run: as §1
# [3] = target: Gal(b1-3)GlcNAc(b1-2)Man(a1-3)[Gal(b1-3)GlcNAc(b1-2)Man(a1-6)]Man(b1-4)GlcNAc(b1-4)[Fuc(a1-6)]GlcNAc
# How it was run: as §1
# [4] = target: Gal(b1-3)GlcNAc(b1-2)[Gal(b1-3)GlcNAc(b1-6)]Man(a1-6)[Gal(b1-3)GlcNAc(b1-2)Man(a1-3)]Man(b1-4)GlcNAc(b1-4)GlcNAc
# How it was run: as §1
# [5] = target: Gal(b1-3)GlcNAc(b1-3)Gal(b1-3)GlcNAc
# How it was run: as §1
# [6] = target: Gal(b1-3)GlcNAc(b1-3)Gal(b1-4)Glc
# How it was run: as §1
# [7] = target: Gal(b1-3)GlcNAc(b1-3)Gal(b1-4)GlcNAc
# How it was run: as §1
# [8] = target: Gal(b1-3)GlcNAc(b1-3)Gal(b1-4)GlcNAc(b1-6)[Gal(b1-3)GlcNAc(b1-3)]Gal(b1-4)Glc
# How it was run: as §1
# [9] = target: Gal(b1-3)GlcNAc(b1-3)Gal(b1-4)[Fuc(a1-3)]GlcNAc(b1-6)[Gal(b1-3)GlcNAc(b1-3)]Gal(b1-4)Glc
# How it was run: as §1
# [10] = target: Gal(b1-3)GlcNAc(b1-3)GalNAc
# How it was run: as §1
# [11] = target: Gal(b1-3)GlcNAc(b1-6)Gal(b1-4)GlcNAc
# How it was run: as §1
# [12] = target: Gal(b1-3)[Fuc(a1-4)]GlcNAc
# How it was run: as §1
# [13] = target: Gal(b1-3)[Fuc(a1-4)]GlcNAc(b1-2)Man(a1-3)[Gal(b1-3)[Fuc(a1-4)]GlcNAc(b1-2)Man(a1-6)]Man(b1-4)GlcNAc(b1-4)GlcNAc
# How it was run: as §1
# [14] = target: Gal(b1-3)[Fuc(a1-4)]GlcNAc(b1-2)Man(a1-3)[Gal(b1-3)[Fuc(a1-4)]GlcNAc(b1-2)Man(a1-6)]Man(b1-4)GlcNAc(b1-4)[Fuc(a1-6)]GlcNAc
# How it was run: as §1
# [15] = target: Gal(b1-3)[Fuc(a1-4)]GlcNAc(b1-3)Gal(b1-3)[Fuc(a1-4)]GlcNAc
# How it was run: as §1
# [16] = target: Gal(b1-3)[Fuc(a1-4)]GlcNAc(b1-3)Gal(b1-4)GlcNAc
# How it was run: as §1
# [17] = target: Gal(b1-3)[Fuc(a1-4)]GlcNAc(b1-3)Gal(b1-4)[Fuc(a1-3)]GlcNAc
# How it was run: as §1
# [18] = target: Gal(b1-3)[GlcNAc(b1-6)]GalNAc
# How it was run: as §1
# [19] = target: Gal(b1-3)[Neu5Ac(a2-6)]GalNAc
# How it was run: as §1
# [20] = target: Gal(b1-3)[Neu5Ac(a2-6)]GlcNAc(b1-6)Gal(b1-4)Glc
# How it was run: as §1
# [21] = target: Gal(b1-3)[Neu5Ac(b2-6)]GalNAc
# How it was run: as §1
# Gal(b1-4)Gal = target: Gal(b1-4)Gal
# How it was run: as §1
# [22] = target: Gal(b1-4)GalNAc(a1-3)[Fuc(a1-2)]Gal(b1-4)GlcNAc
# How it was run: as §1
# [23] = target: Gal(b1-4)GalNAc(b1-3)[Fuc(a1-2)]Gal(b1-4)GlcNAc
# How it was run: as §1
# Gal(b1-4)Glc = target: Gal(b1-4)Glc
# How it was run: as §1
# Gal(b1-4)Glc6S = target: Gal(b1-4)Glc6S
# How it was run: as §1
# Gal(b1-4)GlcNAc = target: Gal(b1-4)GlcNAc
# How it was run: as §1
# [24] = target: Gal(b1-4)GlcNAc(a1-6)Gal(b1-4)GlcNAc
# How it was run: as §1
# Gal(b1-4)GlcNAc(b1-2)Man = target: Gal(b1-4)GlcNAc(b1-2)Man
# How it was run: as §1
# [25] = target: Gal(b1-4)GlcNAc(b1-2)Man(a1-3)Man(b1-4)GlcNAc(b1-4)GlcNAc
# How it was run: as §1
binder,measurement,setting,value
"RetS (Pseudomonas aeruginosa), Q9HUV7 (protein) MVRLRIAIGLLVSFLLLLLGPMSPAVADDAGVSSVPLQTTATTPSANQNWRLLRDESAQLRIADVLQRKEQFRPLAKRSFIFPASPQAVWLQVQLPAQKVPSWLWIFAPRVQYLDYYLVQDGQLVRDQHTGESRPFQERPLPSRSYLFSLPVDGKPMTLYVRMTSNHPLMAWFDQIDEAGLVGLEKPAYAFGMLLGGMLLLLMYNLIRFAYSRSASSLWLAAVHAALAVCAAANLGLVAFWLPGLKFNQSLTADLGALGAAVSLLWFACSFFRGTAESRLNRLLQGEALLILAVGAIIAFTQQLWFSWLIYLLVILSSLSVPLIAAWHWYRGYQPARLIVAGMIVFNAGFMVFLPVLFGTKQLDPGWLVLGVFSFATLAGLVLSVSLTERQRLIQQLNLQQRTSEAAHTAELQTKAEFLAKISHEIRTPMNGVLGMTELLLGTPLSAKQRDYVQTIHSAGNELLTLINEILDISKLESGQIELDEVQFDLNALIEDCLDIFRVKAEQQRIELISFTQPQVPRVIGGDPTRLRQVVLSLLDNAFKQTEEGEILLVVALDDQGETPRLRIAVQDSGHPFDAKEREALLTAELHSGDFLSASKLGSHLGLIIARQLVRLMGGEFGIQSGSSQGTTLSLTLPLDPQQLENPTADLDGPLQGARLLVVDDNETCRKVLVQQCSGWGLNVSAVSSGKEALAQLRTKAHLREYFDVVLLDQDMPGMTGMQLAAKIKEDPNLNHDILLIMLTGISNAPSKIIARNAGIKRILAKPVAGYTLKATLADELAQRGVSGVTNYLQPAKEAQAPSLPSDFRILVAEDNSISTKVIRGMLNKLNLQPDTASNGQEALSAMKATQYDLVLMDCEMPVLDGFSATEQLRAWEAHEQRPHTPVVALTAHILSEHKERARLVGMDGHMAKPVELSQLRELIAYWVGERDRRRQGDALPS",glycan array binding signal (z-score),[1],-0.237
same,glycan array binding signal (z-score),[2],-0.523
same,glycan array binding signal (z-score),[3],1.34
same,glycan array binding signal (z-score),[4],-0.323
same,glycan array binding signal (z-score),[5],-0.583
same,glycan array binding signal (z-score),[6],2.45
same,glycan array binding signal (z-score),[7],-0.887
same,glycan array binding signal (z-score),[8],-0.357
same,glycan array binding signal (z-score),[9],-0.104
same,glycan array binding signal (z-score),[10],0.207
same,glycan array binding signal (z-score),[11],-0.132
same,glycan array binding signal (z-score),[12],-0.542
same,glycan array binding signal (z-score),[13],0.24
same,glycan array binding signal (z-score),[14],-0.397
same,glycan array binding signal (z-score),[15],0.772
same,glycan array binding signal (z-score),[16],0.071
same,glycan array binding signal (z-score),[17],-0.621
same,glycan array binding signal (z-score),[18],-0.436
same,glycan array binding signal (z-score),[19],-0.419
same,glycan array binding signal (z-score),[20],0.022
same,glycan array binding signal (z-score),[21],-0.352
same,glycan array binding signal (z-score),Gal(b1-4)Gal,3.18
same,glycan array binding signal (z-score),[22],0.473
same,glycan array binding signal (z-score),[23],-0.338
same,glycan array binding signal (z-score),Gal(b1-4)Glc,-0.481
same,glycan array binding signal (z-score),Gal(b1-4)Glc6S,0.168
same,glycan array binding signal (z-score),Gal(b1-4)GlcNAc,-0.317
same,glycan array binding signal (z-score),[24],0.457
same,glycan array binding signal (z-score),Gal(b1-4)GlcNAc(b1-2)Man,0.048
same,glycan array binding signal (z-score),[25],-0.97
